In US20190177419A1 (BERGEN TEKNOLOGIOVERFORING, published 2019):
No constants are given. Whether binding was seen depends on the method and setting. Some entries that bind do so weakly or less than the wild type. For some of these results: Sequences can lack the tags named with a protein.

Sequences of proteins named here, by UniProt entry; tags and fusion partners are left off. A change or cut given only in a name is not applied to a line headed by its entry. Residues count along the entry.
UniProt P30530, residues 26-451: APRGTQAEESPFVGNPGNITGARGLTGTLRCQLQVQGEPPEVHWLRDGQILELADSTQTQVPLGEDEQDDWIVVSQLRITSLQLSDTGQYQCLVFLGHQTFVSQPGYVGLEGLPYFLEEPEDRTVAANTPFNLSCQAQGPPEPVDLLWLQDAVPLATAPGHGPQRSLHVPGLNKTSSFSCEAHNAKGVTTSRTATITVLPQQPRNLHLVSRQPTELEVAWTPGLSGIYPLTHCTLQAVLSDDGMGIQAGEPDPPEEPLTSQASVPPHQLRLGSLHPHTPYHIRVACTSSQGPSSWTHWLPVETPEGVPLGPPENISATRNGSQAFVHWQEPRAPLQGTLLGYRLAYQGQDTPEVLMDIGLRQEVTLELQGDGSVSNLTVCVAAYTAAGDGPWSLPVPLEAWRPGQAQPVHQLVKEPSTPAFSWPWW

Tests used:
[1] = molecular target: recombinant human Axl-Fc chimera (R&D Systems, Cat. no. 154-AL) (human) (UniProt P30530); assay: SPR, Biacore 3000, rhAxl-Fc immobilised on CM5, rmGas6 10 µg/mL
[2] = molecular target: T1, recombinant human Tyro3/Dtk-Fc chimera (R&D Systems, Cat. no. 859-DK) (human) (UniProt Q06418); assay: SPR, Biacore 3000, rhTyro3/Dtk-Fc immobilised on CM5, rmGas6 10 µg/mL
T1 sequence: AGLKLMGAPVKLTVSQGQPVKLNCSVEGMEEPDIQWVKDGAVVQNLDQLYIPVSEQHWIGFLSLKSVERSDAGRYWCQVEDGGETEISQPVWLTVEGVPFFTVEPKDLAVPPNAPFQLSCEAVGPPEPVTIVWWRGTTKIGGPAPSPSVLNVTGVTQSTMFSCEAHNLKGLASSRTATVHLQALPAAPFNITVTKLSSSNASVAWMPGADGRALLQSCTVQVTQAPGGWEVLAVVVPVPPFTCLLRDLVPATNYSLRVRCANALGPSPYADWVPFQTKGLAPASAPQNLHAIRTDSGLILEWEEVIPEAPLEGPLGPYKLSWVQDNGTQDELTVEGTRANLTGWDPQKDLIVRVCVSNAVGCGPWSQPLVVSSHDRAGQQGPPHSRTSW

[3] = molecular target: recombinant human Axl-Fc chimera (R&D Systems, Cat. no. 154-AL) (human) (UniProt P30530); assay: SPR (Biacore 3000), rhAxl-Fc immobilised on a CM5 chip, rmGas6 injected at 10 µg/mL for 3 min, 5 min dissociation [panel rmGas6]
[4] = molecular target: T1, recombinant human Tyro3/Dtk-Fc chimera (R&D Systems, Cat. no. 859-DK) (human); assay: SPR (Biacore 3000), rhTyro3/Dtk-Fc immobilised on a CM5 chip, rmGas6 injected at 10 µg/mL for 3 min, 5 min dissociation [panel rmGas6]

Measured: binding

B1: recombinant mouse Gas6 (R&D Systems, Cat. no. 986-GS/CF) (ligand, UniProt Q61592 115-673, looked up)
chain: DQCTPNPCDKKGTHICQDLMGNFFCVCTDGWGGRLCDKDVNECVQKNGGCSQVCHNKPGSFQCACHSGFSLASDGQTCQDIDECTDSDTCGDARCKNLPGSYSCLCDEGYTYSSKEKTCQDVDECQQDRCEQTCVNSPGSYTCHCDGRGGLKLSPDMDTCEDILPCVPFSMAKSVKSLYLGRMFSGTPVIRLRFKRLQPTRLLAEFDFRTFDPEGVLFFAGGRSDSTWIVLGLRAGRLELQLRYNGVGRITSSGPTINHGMWQTISVEELERNLVIKVNKDAVMKIAVAGELFQLERGLYHLNLTVGGIPFKESELVQPINPRLDGCMRSWNWLNGEDSAIQETVKANTKMQCFSVTERGSFFPGNGFATYRLNYTRTSLDVGTETTWEVKVVARIRPATDTGVLLALVGDDDVVPISVALVDYHSTKKLKKQLVVLAVEDVALALMEIKVCDSQEHTVTVSLREGEATLEVDGTKGQSEVSTAQLQERLDTLKTHLQGSVHTYVGGLPEVSVISAPVTAFYRGCMTLEVNGKILDLDTASYKHSDITSHSCPPVEHAT
binds: all assays above
